Laboratory results reported in PubChem BioAssay AID743266 (National Center for Advancing Translational Sciences (NCATS), 2014).
In all, about 410,000 compounds went through this assay and about 310 (0.076%) were called active. Inconclusive results, whose numbers are uncertain, are shown with a selection of clear calls. Calls come from the whole dose curve; as a rule, active = well fitted activation curve with a large enough effect; inconclusive = small, poorly fitted or top-dose-only effect, or another doubt; inactive = no such curve, though single readings can be large or run the other way. Where the call is inconclusive, the potency comes from a doubtful curve fit.

Protein sequences, listed by entry. Tags and fused reporters are not part of them. Lines headed by an entry give the natural chain unless they say otherwise; changes in a name come on top.
UniProt Q03431: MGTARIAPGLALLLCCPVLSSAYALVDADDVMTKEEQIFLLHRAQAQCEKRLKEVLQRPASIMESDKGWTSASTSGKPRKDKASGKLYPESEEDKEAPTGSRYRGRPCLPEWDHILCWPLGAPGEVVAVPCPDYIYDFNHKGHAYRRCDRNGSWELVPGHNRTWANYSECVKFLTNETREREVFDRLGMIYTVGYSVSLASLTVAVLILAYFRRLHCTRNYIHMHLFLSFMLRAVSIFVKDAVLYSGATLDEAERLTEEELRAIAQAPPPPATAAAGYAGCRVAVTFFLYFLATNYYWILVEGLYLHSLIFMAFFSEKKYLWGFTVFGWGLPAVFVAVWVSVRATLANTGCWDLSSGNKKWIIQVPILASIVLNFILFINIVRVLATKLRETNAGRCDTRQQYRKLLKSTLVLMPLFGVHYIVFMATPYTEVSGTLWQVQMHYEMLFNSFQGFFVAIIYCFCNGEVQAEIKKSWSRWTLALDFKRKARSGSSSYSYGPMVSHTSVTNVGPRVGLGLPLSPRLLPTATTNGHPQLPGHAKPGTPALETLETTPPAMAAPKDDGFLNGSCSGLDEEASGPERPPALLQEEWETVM

Target: Parathyroid hormone/parathyroid hormone-related peptide receptor (Homo sapiens) (UniProt Q03431)
Experiment: qHTS for PTHR1 Agonists: Primary Screen; note: nearly all actives have a fitted effect of over 55% in size
Conditions: HEK293 GP2 PTHR1 cells, GloSensor cAMP luminescence, 1 h; activation: at 115 µM (top of the series) unless noted; series mostly up to 115 µM
In short: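 HEK-293-derived GP2 cells expressing PTHR1 and a GloSensor cAMP reporter, 3,000/well, plated overnight, given luciferin plus IBMX (each 0.5 mM as added) for 1 h at 37 °C, then compound for 1 h at 37 °C. Luminescence was read after 15 min at room temperature.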
Potency is the fitted concentration of half-maximal effect.

| SMILES | Potency | activation |
| --- | --- | --- |
| Cc1oc2cc(OC(C)C(=O)O)ccc2c(=O)c1Oc1ccccc1 (stereo not drawn) | inconclusive: 0.631 µM [activator, full curve, poor fit] |  |
| CCCCNC(=O)c1ccc2c(c1)N(CC)C(=O)c1ccccc1S2(=O)=O | inactive |  |
| CCc1ccc(OCC(=O)NNC(=O)c2cnccn2)c(Br)c1 | inactive |  |
| c1ccc(CCOn2ccnc2)cc1 |  | inconclusive: 38.6% [activator] |
| CCC(NC(=O)CCc1c(C)c2cc3c(C)c(C)oc3cc2oc1=O)C(=O)N[C@@H](Cc1ccccc1)C(=O)O (stereo partly drawn) | inconclusive: 89.1 µM [activator, single point] |  |
| COc1ccc(NCc2cc3cc4c(cc3n(CC(=O)Nc3ccc(F)cc3F)c2=O)OCO4)cc1 | inconclusive: 112 µM [activator, single point] |  |
| Cc1sc2nc(CN3CCCC3)nc(N3CCN(S(=O)(=O)c4cccs4)CC3)c2c1C | inconclusive: 31.6 µM [activator, partial curve, poor fit] |  |
| CC(C)Cn1cnc2c(=O)oc3ccccc3c21 | inconclusive: 35.5 µM [activator, single point] |  |
| CCOC(=O)c1cccc(NC(=O)c2cc3c(=O)n(Cc4ccccc4)ccc3nc2C)c1 | inactive |  |
| O=C1CN(C(=S)NC(=O)c2ccccc2[N+](=O)[O-])CCN1 | inconclusive: 126 µM [activator, single point] |  |
| CCN(CC)CC(C)CNC(=O)CN1C(=O)CSc2ccc(S(=O)(=O)N3CCOCC3)cc21 (stereo not drawn) | inconclusive: 100 µM [activator, single point] |  |
| Cc1cc(C(=O)CCC(=O)NNC(=O)c2ccccc2O)c(C)s1 | inconclusive: 126 µM [activator, single point] |  |
| Cc1ccc(NC(=O)CN(C)C(=O)c2cccc(S(=O)(=O)N3CCCC3)c2)cc1 |  | inconclusive: 35.9% [activator] |
| Cc1ccc(Cl)cc1N1CCN(C(=O)C2CCN(S(=O)(=O)c3c(C)nn(C)c3C)CC2)CC1 | inactive |  |
| CC(C)(C)C(=O)Nc1cc(C(F)(F)F)ccc1-n1ccnc1 | inconclusive: 89.1 µM [activator, partial curve, poor fit] |  |
| CC(=O)Nc1c(O)nc(SCC(=O)Nc2cccc(C)c2)[nH]c1=O | inconclusive: 28.2 µM [activator, single point] |  |
| CC(=O)NC(Cc1cccc(F)c1)C(=O)NC1CCN(c2ncccc2[N+](=O)[O-])CC1 (stereo not drawn) | inconclusive: 100 µM [activator, single point] |  |
| CCC(C(=O)Nc1ccc(C(=O)OC)cc1)n1c(=O)c(-c2ccccc2NC(C)=O)nc2ccccc21 (stereo not drawn) | inconclusive: 126 µM [activator, single point] |  |
| O=C(COC(=O)CN1C(=O)c2ccccc2C1=O)Nc1ncc(Cl)cc1Cl | inconclusive: 14.1 µM [activator, partial curve, poor fit] |  |
| COc1cccc(NC(=O)C2CCCN(S(=O)(=O)c3c(C)[nH]c(=O)[nH]c3=O)C2)c1 (stereo not drawn) |  | inconclusive: 34.7% [activator] |
| O=C(CCc1ccccc1)c1nnc(-c2ccccc2)o1 | inconclusive: 31.6 µM [activator, single point] |  |
| Cc1cc(C)cc(NC(=O)CCC(=O)N2Cc3ccccc3Oc3ncccc32)c1 | inconclusive: 100 µM [activator, partial curve, poor fit] |  |
| CS(=O)(=O)N(CC(=O)NCCSc1ccccn1)c1ccc(F)cc1 |  | inconclusive: -5.08% [activator] |

Shown tab-delimited: entries from further up.
SMILES	Potency	activation
CCC(NC(=O)CCc1c(C)c2cc3c(C)c(C)oc3cc2oc1=O)C(=O)N[C@@H](Cc1ccccc1)C(=O)O (stereo partly drawn)	inconclusive: 89.1 µM [activator, single point]	
CCN(CC)CC(C)CNC(=O)CN1C(=O)CSc2ccc(S(=O)(=O)N3CCOCC3)cc21 (stereo not drawn)	inconclusive: 100 µM [activator, single point]	
Cc1cc(C(=O)CCC(=O)NNC(=O)c2ccccc2O)c(C)s1	inconclusive: 126 µM [activator, single point]	
Cc1ccc(Cl)cc1N1CCN(C(=O)C2CCN(S(=O)(=O)c3c(C)nn(C)c3C)CC2)CC1	inactive	

The listing continues:

| SMILES | Potency | activation |
| --- | --- | --- |
| COc1cccc(CC(=O)Nc2sc3c(c2C(N)=O)CCCC3)c1 | inactive |  |
| COc1ccc(C(=O)Cn2c(=O)c(CCC(=O)O)nn3c4ccccc4nc23)cc1OC | inconclusive: 35.5 µM [activator, partial curve, poor fit] |  |
| CCCCN(C(=O)/C=C/c1ccco1)c1c(N)n(CC(C)C)c(=O)[nH]c1=O | inconclusive: 50.1 µM [activator, partial curve, poor fit] |  |
| O=C(O)CSc1c2c(nc3cc(C(=O)N4CCCC4)ccc13)CCCC2 |  | inconclusive: 43.8% [activator] |
| Cc1cc(C)cc(OCC(=O)Nc2cnn(CCCC(=O)O)c2)c1 | inconclusive: 126 µM [activator, single point] |  |
| CN(c1ccccc1)P(=O)(N(C)c1ccccc1)N(C)c1ccccc1 |  | inconclusive: -91.1% [activator] |
| Cc1ccc(CS(=O)(=O)CCC(=O)NCc2cccs2)cc1 | inconclusive: 0.316 µM [activator, full curve, poor fit] |  |
| Cc1cccc(Nc2nc(N)c([N+](=O)[O-])c(N3CCC(C)CC3)n2)c1 | inactive |  |
| O=C(COC(=O)c1c[nH]c2ccccc12)Nc1ccc(F)cc1 | inconclusive: 6.31 µM [activator, full curve, poor fit] |  |
| Cc1ccc(S(=O)(=O)NCCC(=O)NC2CCCCCC2)cc1 |  | inconclusive: 37.3% [activator] |
| O=[N+]([O-])c1cccc(NC(=S)NCCc2ccccc2)c1 | inactive |  |
| Cc1ccn2c(=O)cc(CSc3nnc(NC(=O)c4ccccc4Cl)s3)nc2c1 | inactive |  |
| C/C(=N\Nc1ccccc1Cl)c1ccc(-n2ccnc2)cc1 | inactive |  |
| COc1ccc(CN2CC(COCc3ccccc3)Oc3ccccc3S2(=O)=O)cc1 (stereo not drawn) | inactive |  |
| CC(C)NCCCCOc1cccc(Br)c1 | inactive |  |
| CCn1cc(C(=O)N2CCN(c3cc(C)ccc3C)CC2)c(=O)c2cc(S(=O)(=O)N3CCOCC3)ccc21 | inconclusive: 50.1 µM [activator, partial curve, poor fit] |  |
| O=S(=O)(NCCc1csc(-c2ccc(F)cc2)n1)c1ccc(Cl)cc1 | inactive |  |
| CCOc1ccccc1NC(=O)Cn1c(=O)ccc2cc(S(=O)(=O)N3CCC(C)CC3)ccc21 |  | inconclusive: 43.2% [activator] |
| CCOc1ccc(S(=O)(=O)N2CCCCC2)cc1NC(=O)Cc1cc(OC)c(OC)c(OC)c1 | inactive |  |
| COCC(=O)N1CCCc2ccccc21 |  | inconclusive: 63% [activator] [at 57.5 µM] |
| Cc1ccc(S(=O)(=O)c2[nH]c(-c3ccccc3)nc2SCC(=O)O)cc1 | inconclusive: 112 µM [activator, partial curve, poor fit] |  |
| Cc1nnc2n(Cc3ccccc3)c(=O)c3c4c(sc3n12)COC(C)(C)C4 | inconclusive: 5.01 µM [activator, full curve, poor fit] |  |
| NC(=O)c1cn(-c2ccccc2)nc1-c1cc2ccccc2oc1=O | inconclusive: 50.1 µM [activator, single point] |  |

| SMILES | Potency | activation |
| --- | --- | --- |
| Cn1c(C(=O)O)cc2c(=O)n3ccccc3nc21 | inconclusive: 126 µM [activator, single point] |  |
| O=C(N(c1ccccc1)c1ccccc1)n1ccnc1 | inconclusive: 39.8 µM [activator, single point] |  |
| NNC(=O)CNC(c1ccccc1)c1cc(Br)ccc1NC(=O)c1cccc(Cl)c1 (stereo not drawn) | inactive |  |
| COc1cccc(OCc2cc(C(=O)N3CCC(c4ccncc4)CC3)no2)c1 | inactive |  |
| COc1cccc(N2CCN(C(=O)C3CCC(CNS(=O)(=O)c4ccc(Br)s4)CC3)CC2)c1 (stereo not drawn) | inactive |  |
| Cc1ccc(C(=O)NCCC(=O)NCc2cc(=O)n(C)c(=O)n2C)cc1 | inconclusive: 2.51 µM [activator, full curve, poor fit] |  |
| O=C(Cn1nc(-c2ccccc2)c2ccccc2c1=O)NCCN1CCOCC1 | inconclusive: 39.8 µM [activator, single point] |  |
| CCCCn1c(-c2nonc2N)nc2ccccc21 | inactive |  |
| CC(=O)c1sc(N/N=C\c2cccc(Br)c2)nc1C | inactive |  |
| O=C(Nc1ccc(F)cc1F)c1ccc(CN2CC(=O)N3CCCCC3C2=O)cc1 (stereo not drawn) | inconclusive: 3.98 µM [activator, full curve] |  |
| CC(=O)Nc1c2c(nn1-c1ccc(C)cc1C)CSC2 | inconclusive: 44.7 µM [activator, single point] |  |
| CCC(=O)Oc1ccc2c(C)cc(=O)oc2c1C(=O)CC | inconclusive: 25.1 µM [activator, single point] |  |
| COc1ccc(N(CC(=O)NC(C)c2ccccc2)S(=O)(=O)c2c(C)noc2C)cc1 (stereo not drawn) | inactive |  |
| CCN(CC)Cc1c(C(=O)N/N=C/c2ccco2)nnn1-c1nonc1N |  | inconclusive: 33.6% [activator] |
| Cc1cccc(NC(=O)CSc2nc3[nH]c(=O)cc(O)c3s2)c1 | inconclusive: 89.1 µM [activator, partial curve, poor fit] |  |
| COc1ccc(NC(=O)CCc2nnc3ccc(N4CCC5(CC4)OCCO5)nn23)cc1 |  | inconclusive: 142% [activator] |
| Cc1c(CCC(=O)O)c(=O)oc2cc(OCc3cccc(Cl)c3)ccc12 | inconclusive: 11.2 µM [activator, full curve, poor fit] |  |
| FC(F)(F)c1ccccc1Cc1c(-c2ccc(Cl)cc2)nc2ccc(Br)cn12 | inactive |  |
| OC(CN1CCCCC1)c1ccc(Br)cc1 (stereo not drawn) | inconclusive: 79.4 µM [activator, partial curve, poor fit] |  |
| CN1CCN(CCCNC(=O)c2cnn(-c3ccccc3)c2C2CCN(C(=O)OC(C)(C)C)CC2)CC1 |  | inconclusive: 53.6% [activator] |
| O=C(O)/C(=C\c1cn(-c2ccccc2)nc1-c1ccc(Cl)cc1)NC(=O)c1ccccc1 |  | inconclusive: 45.8% [activator] |
| C=C[C@@]1(C)CC(=O)[C@]2(O)[C@@]3(C)[C@@H](O)CCC(C)(C)[C@@H]3[C@H](O)[C@H](OC(C)=O)[C@@]2(C)O1 |  | inconclusive: -20.4% [activator] |
